Experimental data: article PMC7464559, “Synthesis, Optimization, Antifungal Activity, Selectivity, and CYP51 Binding of New 2-Aryl-3-azolyl-1-indolyl-propan-2-ols” (Pharmaceuticals, 2020)

Target: T1, aromatase (CYP19) (Homo sapiens, UniProt P11511)
T1 construct: Microsomal protein (0.1 mg) was added to start the reaction; from tissue; host or cells: microsomes; ('human placental microsomes')
T1 sequence (P11511 1-503): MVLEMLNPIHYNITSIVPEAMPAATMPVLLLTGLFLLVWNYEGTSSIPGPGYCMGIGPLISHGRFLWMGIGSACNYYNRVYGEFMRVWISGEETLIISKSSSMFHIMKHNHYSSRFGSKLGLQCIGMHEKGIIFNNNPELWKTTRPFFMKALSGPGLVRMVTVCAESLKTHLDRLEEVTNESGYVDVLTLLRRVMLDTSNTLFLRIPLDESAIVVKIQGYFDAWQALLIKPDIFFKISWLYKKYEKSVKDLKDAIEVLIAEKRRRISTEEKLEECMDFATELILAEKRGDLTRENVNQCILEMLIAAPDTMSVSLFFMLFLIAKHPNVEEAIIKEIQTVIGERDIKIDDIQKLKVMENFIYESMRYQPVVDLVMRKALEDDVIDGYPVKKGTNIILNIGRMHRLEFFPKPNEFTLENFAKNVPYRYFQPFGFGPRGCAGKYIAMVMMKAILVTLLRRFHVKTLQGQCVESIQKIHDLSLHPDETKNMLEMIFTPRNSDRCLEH
Assay: In vitro inhibition of aromatase
Assay type: biochemical

SMILES: CC(C)(C#N)c1cc(Cn2cncn2)cc(C(C)(C)C#N)c1 [anastrozole, reference compound]
- IC50: 163 nM
